Data reported in publication PMC7099064.
Results are given in words; binding and its absence hold for the method and conditions named. Binding seen in cells or lysates may run through a third protein. Some binding calls cover weakened binding; strength is not graded here.

By UniProt entry, the sequences of proteins in these tests, tags left out.
UniProt Q9Z218: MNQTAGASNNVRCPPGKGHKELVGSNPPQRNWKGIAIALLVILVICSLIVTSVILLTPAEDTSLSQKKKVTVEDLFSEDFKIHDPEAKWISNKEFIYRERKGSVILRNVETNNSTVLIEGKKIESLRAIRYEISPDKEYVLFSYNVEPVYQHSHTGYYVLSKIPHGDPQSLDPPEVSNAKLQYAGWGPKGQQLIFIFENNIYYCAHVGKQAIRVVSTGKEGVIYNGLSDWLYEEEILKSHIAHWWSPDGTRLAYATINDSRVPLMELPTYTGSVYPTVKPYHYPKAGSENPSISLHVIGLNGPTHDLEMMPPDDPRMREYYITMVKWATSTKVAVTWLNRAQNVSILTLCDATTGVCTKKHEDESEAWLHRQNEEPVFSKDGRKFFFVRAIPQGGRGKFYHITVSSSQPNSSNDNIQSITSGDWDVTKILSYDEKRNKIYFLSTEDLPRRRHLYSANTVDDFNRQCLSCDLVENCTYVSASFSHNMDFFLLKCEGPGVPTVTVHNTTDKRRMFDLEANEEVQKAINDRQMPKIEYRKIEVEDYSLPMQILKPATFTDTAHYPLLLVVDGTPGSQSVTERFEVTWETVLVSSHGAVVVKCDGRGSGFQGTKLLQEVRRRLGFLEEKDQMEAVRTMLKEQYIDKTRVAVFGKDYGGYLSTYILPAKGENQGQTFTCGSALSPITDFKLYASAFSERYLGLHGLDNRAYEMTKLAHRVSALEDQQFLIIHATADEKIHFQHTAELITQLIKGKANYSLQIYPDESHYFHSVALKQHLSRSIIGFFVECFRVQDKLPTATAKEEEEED
UniProt Q13526: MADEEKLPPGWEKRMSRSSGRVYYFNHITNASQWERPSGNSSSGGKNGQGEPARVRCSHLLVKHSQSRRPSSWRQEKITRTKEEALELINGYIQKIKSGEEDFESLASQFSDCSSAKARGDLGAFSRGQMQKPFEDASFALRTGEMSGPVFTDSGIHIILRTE
UniProt Q9QUR7: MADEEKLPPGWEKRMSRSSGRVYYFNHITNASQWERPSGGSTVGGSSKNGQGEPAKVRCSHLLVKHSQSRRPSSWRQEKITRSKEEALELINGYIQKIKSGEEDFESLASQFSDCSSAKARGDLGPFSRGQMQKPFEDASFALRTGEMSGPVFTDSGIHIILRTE

How the values were obtained:
[1] = molecular target: T1, Kv4.2 T607A of the knock-in mouse (Kv4.2TA) (mouse (endogenous in brain)) (UniProt Q9Z0V2); assay: co-IP; mouse forebrain lysates (WT or Kv4.2TA; with or without PTZ, SB203580, SL327, juglone), IP with anti-Kv4.2 (NeuroMab 75-016), PBS pH 7.4 with 1% Triton X-100 and 0.2% Chaps, 4 °C, blot for DPP6
T1 sequence: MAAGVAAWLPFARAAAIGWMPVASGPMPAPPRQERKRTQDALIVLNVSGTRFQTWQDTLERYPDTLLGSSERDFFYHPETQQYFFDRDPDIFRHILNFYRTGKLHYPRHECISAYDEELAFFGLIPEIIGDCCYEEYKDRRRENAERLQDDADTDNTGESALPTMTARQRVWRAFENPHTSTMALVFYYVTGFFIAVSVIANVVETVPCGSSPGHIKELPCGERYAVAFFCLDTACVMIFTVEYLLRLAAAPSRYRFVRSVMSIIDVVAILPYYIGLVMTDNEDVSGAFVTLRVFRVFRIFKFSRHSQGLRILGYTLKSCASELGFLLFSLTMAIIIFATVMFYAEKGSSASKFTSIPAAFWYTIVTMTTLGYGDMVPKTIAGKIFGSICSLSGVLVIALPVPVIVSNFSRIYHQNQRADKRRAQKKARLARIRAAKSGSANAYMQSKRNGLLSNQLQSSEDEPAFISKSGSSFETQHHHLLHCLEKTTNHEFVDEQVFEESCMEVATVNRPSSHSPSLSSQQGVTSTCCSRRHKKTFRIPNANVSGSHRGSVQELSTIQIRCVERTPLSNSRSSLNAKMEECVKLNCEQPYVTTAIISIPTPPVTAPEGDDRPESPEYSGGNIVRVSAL

Kv4.3 = molecular target: T2, Kv4.3 (UniProt Q9UK17); assay: co-IP; Pin1 with Kv4.1, Kv4.2, Kv4.3 and Kv3.4 (Supplementary Fig. 2c); constructs and cells not shown
T2 sequence: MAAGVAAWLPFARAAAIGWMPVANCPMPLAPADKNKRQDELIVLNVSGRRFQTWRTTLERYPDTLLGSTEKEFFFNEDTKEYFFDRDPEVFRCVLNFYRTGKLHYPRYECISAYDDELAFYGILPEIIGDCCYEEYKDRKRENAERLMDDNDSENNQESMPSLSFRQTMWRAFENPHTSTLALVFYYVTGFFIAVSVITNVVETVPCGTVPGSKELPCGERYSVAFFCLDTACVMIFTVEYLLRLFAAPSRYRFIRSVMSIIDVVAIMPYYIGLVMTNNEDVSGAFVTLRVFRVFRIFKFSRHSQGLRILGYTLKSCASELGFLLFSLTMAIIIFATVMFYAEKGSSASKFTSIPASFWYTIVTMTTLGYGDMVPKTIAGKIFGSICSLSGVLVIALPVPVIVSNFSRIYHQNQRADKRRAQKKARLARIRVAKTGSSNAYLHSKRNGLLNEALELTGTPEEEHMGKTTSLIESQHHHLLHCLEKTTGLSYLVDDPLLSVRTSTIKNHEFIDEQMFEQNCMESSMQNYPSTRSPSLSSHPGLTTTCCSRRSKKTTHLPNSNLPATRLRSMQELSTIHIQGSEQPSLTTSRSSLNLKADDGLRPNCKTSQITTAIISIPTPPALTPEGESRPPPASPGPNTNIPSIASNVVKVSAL

Kv4.1 = molecular target: T3, Kv4.1 (UniProt Q9NSA2); assay: as above
T3 sequence: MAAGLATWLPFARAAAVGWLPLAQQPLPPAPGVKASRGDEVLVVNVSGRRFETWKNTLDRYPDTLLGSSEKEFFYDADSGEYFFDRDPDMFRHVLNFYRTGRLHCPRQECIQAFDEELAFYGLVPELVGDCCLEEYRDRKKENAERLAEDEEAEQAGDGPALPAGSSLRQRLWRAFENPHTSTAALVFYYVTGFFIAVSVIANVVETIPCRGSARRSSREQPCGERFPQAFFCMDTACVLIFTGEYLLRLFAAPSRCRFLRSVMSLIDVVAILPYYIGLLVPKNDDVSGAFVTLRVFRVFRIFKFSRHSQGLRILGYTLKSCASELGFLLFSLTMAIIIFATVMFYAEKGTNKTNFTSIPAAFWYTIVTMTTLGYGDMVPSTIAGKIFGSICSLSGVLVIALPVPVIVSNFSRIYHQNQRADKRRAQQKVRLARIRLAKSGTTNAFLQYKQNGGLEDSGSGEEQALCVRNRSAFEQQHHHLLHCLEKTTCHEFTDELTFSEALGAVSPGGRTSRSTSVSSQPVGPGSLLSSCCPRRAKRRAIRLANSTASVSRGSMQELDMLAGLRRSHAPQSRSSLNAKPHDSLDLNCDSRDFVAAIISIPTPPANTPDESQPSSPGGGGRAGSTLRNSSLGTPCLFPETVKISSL

[2] = molecular target: Kv4.2, endogenous in mouse brain and cultured mouse neurons (mouse (endogenous in brain)) (UniProt Q9Z0V2); assay: co-IP; mouse forebrain lysates (WT, Kv4.2 KO, Kv4.2TA; with or without PTZ), IP with mouse or rabbit anti-Kv4.2, PBS pH 7.4 with 0.8% Triton X-100, 4 °C, blot for Pin1

dipeptidyl peptidase 6 (DPP6), endogenous in mouse brain and cultured mouse neurons (from UniProt Q9Z218 1-804)
binding [1]: binds

peptidyl-prolyl cis-trans isomerase NIMA-interacting 1 (Pin1), as used in the experiments of Supplementary Fig. 2 (from UniProt Q13526 1-163) (enzyme)
binding (Kv4.3): binds | binding (Kv4.1): binds

peptidyl-prolyl cis-trans isomerase NIMA-interacting 1 (Pin1), endogenous in mouse brain (from UniProt Q9QUR7 1-165) (enzyme)
binding [2]: binds
